Test results: PMC3707915
These are yes or no findings as the source states them, for the method shown. Binding seen in cells or lysates may run through a third protein. These calls come from enrichment with a bait or labelling near it, and not all partners need be listed.

Protein sequences, listed by entry. Tags and fused reporters are not part of them. Lines headed by an entry give the natural chain unless they say otherwise; changes in a name come on top.
UniProt P53742: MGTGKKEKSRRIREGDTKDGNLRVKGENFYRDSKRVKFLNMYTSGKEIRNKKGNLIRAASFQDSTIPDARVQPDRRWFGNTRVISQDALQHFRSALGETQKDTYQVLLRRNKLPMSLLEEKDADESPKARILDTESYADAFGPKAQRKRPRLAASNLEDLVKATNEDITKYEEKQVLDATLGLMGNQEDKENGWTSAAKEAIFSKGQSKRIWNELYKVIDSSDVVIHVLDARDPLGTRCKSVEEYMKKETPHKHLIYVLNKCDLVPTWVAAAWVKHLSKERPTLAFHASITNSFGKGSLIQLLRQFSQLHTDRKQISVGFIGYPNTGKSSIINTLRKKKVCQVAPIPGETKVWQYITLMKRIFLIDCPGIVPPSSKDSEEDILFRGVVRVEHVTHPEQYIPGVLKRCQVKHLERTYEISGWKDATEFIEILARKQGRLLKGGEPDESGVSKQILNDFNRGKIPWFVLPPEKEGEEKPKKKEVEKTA
UniProt P04456: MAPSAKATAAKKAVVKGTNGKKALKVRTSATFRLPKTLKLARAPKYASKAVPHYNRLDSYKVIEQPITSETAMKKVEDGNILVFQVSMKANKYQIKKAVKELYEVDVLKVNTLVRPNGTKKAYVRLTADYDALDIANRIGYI
UniProt P0C2H8: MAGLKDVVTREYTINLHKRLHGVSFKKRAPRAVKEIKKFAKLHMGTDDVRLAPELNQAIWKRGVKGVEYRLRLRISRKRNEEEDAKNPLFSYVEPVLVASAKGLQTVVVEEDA
UniProt P0CX82: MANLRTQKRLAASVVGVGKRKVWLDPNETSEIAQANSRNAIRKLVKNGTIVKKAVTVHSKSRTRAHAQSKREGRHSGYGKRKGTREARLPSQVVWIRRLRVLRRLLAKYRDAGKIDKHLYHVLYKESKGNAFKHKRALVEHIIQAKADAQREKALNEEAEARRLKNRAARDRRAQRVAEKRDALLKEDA
UniProt P05738: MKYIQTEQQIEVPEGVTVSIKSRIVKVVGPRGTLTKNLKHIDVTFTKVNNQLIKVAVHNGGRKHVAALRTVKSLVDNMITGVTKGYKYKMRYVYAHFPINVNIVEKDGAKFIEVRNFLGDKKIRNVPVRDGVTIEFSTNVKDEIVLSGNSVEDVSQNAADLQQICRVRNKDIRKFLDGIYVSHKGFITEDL
UniProt P04650: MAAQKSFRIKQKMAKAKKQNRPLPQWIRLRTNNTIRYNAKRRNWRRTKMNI
UniProt P0C0W9: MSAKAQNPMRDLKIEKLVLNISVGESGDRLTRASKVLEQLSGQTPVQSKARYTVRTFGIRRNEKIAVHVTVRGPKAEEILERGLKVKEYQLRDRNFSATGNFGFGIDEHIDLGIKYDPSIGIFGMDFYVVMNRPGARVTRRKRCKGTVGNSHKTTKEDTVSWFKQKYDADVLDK
UniProt P02406: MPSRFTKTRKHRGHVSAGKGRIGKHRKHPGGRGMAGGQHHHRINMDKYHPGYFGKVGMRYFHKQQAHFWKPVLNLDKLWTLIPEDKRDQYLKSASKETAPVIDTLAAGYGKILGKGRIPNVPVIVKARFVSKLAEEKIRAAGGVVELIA

T1: Nog1-TAP (S. cerevisiae) (UniProt Q02892)
T1 sequence: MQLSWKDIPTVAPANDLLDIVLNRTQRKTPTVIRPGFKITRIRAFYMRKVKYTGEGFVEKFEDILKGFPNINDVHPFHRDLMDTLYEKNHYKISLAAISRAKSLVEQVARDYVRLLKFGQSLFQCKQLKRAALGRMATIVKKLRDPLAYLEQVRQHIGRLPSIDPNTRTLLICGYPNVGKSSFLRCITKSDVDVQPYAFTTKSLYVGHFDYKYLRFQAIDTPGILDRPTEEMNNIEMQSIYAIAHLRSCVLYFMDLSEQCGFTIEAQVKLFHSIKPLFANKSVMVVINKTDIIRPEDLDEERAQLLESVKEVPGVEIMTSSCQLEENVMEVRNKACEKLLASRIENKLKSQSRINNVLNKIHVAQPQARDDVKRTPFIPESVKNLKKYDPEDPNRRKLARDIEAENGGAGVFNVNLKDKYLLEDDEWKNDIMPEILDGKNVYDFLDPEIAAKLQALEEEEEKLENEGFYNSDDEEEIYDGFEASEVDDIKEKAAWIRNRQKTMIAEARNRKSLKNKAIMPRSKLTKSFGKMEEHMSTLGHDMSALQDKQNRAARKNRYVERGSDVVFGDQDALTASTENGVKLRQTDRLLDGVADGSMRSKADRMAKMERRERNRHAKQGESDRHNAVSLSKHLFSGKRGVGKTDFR


Target: T1, Nog1-TAP (S. cerevisiae)
Experiment: affinity purification with mass spectrometry; TAP-tagged LSU biogenesis factor and associated pre-ribosomal particles purified in one step from total yeast cellular extract on rabbit IgG coupled magnetic beads, 1 h at 4°C, MB buffer (20 mM Tris HCl pH 8, 200 or 300 mM KCl, 5 mM MgOAc) with 0.5% Triton X-100 and 0.1% Tween 20; eluates compared pair wise by semi-quantitative LC-MS/MS with iTRAQ reagents; for Nog1-, Nog2- and Rsa4-TAP wild type against strains in which RPL25, RPL2, RPL43 or RPL21 was shut down for 4 h in glucose

Molecule | binding
rpP0 (protein, UniProt P05317 1-312) MGGIREKKAEYFAKLREYLEEYKSLFVVGVDNVSSQQMHEVRKELRGRAVVLMGKNTMVRRAIRGFLSDLPDFEKLLPFVKGNVGFVFTNEPLTEIKNVIVSNRVAAPARAGAVAPEDIWVRAVNTGMEPGKTSFFQALGVPTKIARGTIEIVSDVKVVDAGNKVGQSEASLLNLLNISPFTFGLTVVQVYDNGQVFPSSILDITDEELVSHFVSAVSTIASISLAIGYPTLPSVGHTLINNYKDLLAVAIAASYHYPEIEDLVDRIENPEKYAAAAPAATSAASGDAAPAEEAAAEEEEESDDDMGFGLFD | binds
rpL35 (protein, UniProt P0CX84 1-120) MAGVKAYELRTKSKEQLASQLVDLKKELAELKVQKLSRPSLPKIKTVRKSIACVLTVINEQQREAVRQLYKGKKYQPKDLRAKKTRALRRALTKFEASQVTEKQRKKQIAFPQRKYAIKA | binds
Rsa4 (protein, UniProt P25382 1-515) MSTLIPPPSKKQKKEAQLPREVAIIPKDLPNVSIKFQALDTGDNVGGALRVPGAISEKQLEELLNQLNGTSDDPVPYTFSCTIQGKKASDPVKTIDITDNLYSSLIKPGYNSTEDQITLLYTPRAVFKVKPVTRSSSAIAGHGSTILCSAFAPHTSSRMVTGAGDNTARIWDCDTQTPMHTLKGHYNWVLCVSWSPDGEVIATGSMDNTIRLWDPKSGQCLGDALRGHSKWITSLSWEPIHLVKPGSKPRLASSSKDGTIKIWDTVSRVCQYTMSGHTNSVSCVKWGGQGLLYSGSHDRTVRVWDINSQGRCINILKSHAHWVNHLSLSTDYALRIGAFDHTGKKPSTPEEAQKKALENYEKICKKNGNSEEMMVTASDDYTMFLWNPLKSTKPIARMTGHQKLVNHVAFSPDGRYIVSASFDNSIKLWDGRDGKFISTFRGHVASVYQVAWSSDCRLLVSCSKDTTLKVWDVRTRKLSVDLPGHKDEVYTVDWSVDGKRVCSGGKDKMVRLWTH | binds

Further lines, results first:

binding | Molecule
binds | Noc2 (protein, UniProt P39744 1-710) MGKVSKSTKKFQSKHLKHTLDQRRKEKIQKKRIQGRRGNKTDQEKADAAGTREQQQLKKSAKEEVFKDMSVETFFEKGIEIPKENKKLKKKTTKEQSDEDSSSSEEEEDMGQSMAKLAEKDPEFYKYLEENDKDLLDFAGTNPLDGIDSQDEGEDAERNSNIEEKSEQMELEKEKIELSLKLVRKWKKQLHDSPSLKLLRNIISAFKVAVNLNKEENIEDYKYAITDEKAFHELMFMVLKDVPQAIQKMAPYKIVKGARTLPNGGNVSRVSSIVKSHAGSLLILLNDITNTETAALVLHSVNELMPYLLSYRRILKELIKSIVGVWSTTRELETQIASFAFLINTTKEFKKSMLETTLKTTYSTFIKSCRKTNMRSMPLINFQKNSAAELFGIDEVLGYQVGFEYIRQLAIHLRNTMNATTKKSSKINSAEAYKIVYNWQFCHSLDFWSRVLSFACQPEKENGSESPLRQLIYPLVQVTLGVIRLIPTPQFFPLRFYLIKSLIRLSQNSGVFIPIYPLLSEILTSTAFTKAPKKSPNLAAFDFEHNIKCTQAYLNTKIYQEGLSEQFVDLLGDYFALYCKNIAFPELVTPVIISLRRYIKTSTNVKLNKRLSTVVEKLNQNSTFIQEKRSDVEFGPTNKSEVSRFLNDVAWNKTPLGSYVAVQREVKEEKARLMRESMEEQDKERETEEAKLLNSLESDDDNEDVEMSDA
binds | Nsa2 (protein, UniProt P40078 1-261) MPQNDYIERHIKQHGKRLDHEERKRKREARESHKISERAQKLTGWKGKQFAKKRYAEKVSMRKKIKAHEQSKVKGSSKPLDTDGDALPTYLLDREQNNTAKAISSSIKQKRLEKADKFSVPLPKVRGISEEEMFKVIKTGKSRSKSWKRMITKHTFVGEGFTRRPVKMERIIRPSALRQKKANVTHPELGVTVFLPILAVKKNPQSPMYTQLGVLTKGTIIEVNVSELGMVTAGGKVVWGKYAQVTNEPDRDGCVNAVLLV

Target: Nog2-TAP (S. cerevisiae) (UniProt P53742)
Experiment: as above

Molecule | binding
Rrs1 (protein, UniProt Q08746 1-203) MSAEDYKNLPVTVEKPIPVVYDLGNLAAFDSNVLDKNDLDSSNARREEKIKSLTRDNVQLLINQLLSLPMKTTTESVGGTGGQSSVMTLLQLPDPTTDLPREKPLPKAKAMTKWEKFAAKKGIKPKERAGKMIYDEASGEWVPKWGYKGANKKLDDQWLVEVDDKVKGTDNELIDPRTLNRAERKRLVKKNEKQQRRNMKNAL | binds
Nop15 (protein, UniProt P53927 1-220) MVKSTSKTSTKETVTKQPTEEKPIQEKEELALETSSSSSDEEDEKDEDEIEGLAASDDEQSGTHKIKRLNPKKQANEKKSKDKKTLEEYSGIIYVSRLPHGFHEKELSKYFAQFGDLKEVRLARNKKTGNSRHYGFLEFVNKEDAMIAQESMNNYLLMGHLLQVRVLPKGAKIEKLYKYKKRVLVEKGITKPVKQLKDNMKQKHEERIKKLAKSGIEFKW | binds
Rsa4 (protein, UniProt P25382 1-515) MSTLIPPPSKKQKKEAQLPREVAIIPKDLPNVSIKFQALDTGDNVGGALRVPGAISEKQLEELLNQLNGTSDDPVPYTFSCTIQGKKASDPVKTIDITDNLYSSLIKPGYNSTEDQITLLYTPRAVFKVKPVTRSSSAIAGHGSTILCSAFAPHTSSRMVTGAGDNTARIWDCDTQTPMHTLKGHYNWVLCVSWSPDGEVIATGSMDNTIRLWDPKSGQCLGDALRGHSKWITSLSWEPIHLVKPGSKPRLASSSKDGTIKIWDTVSRVCQYTMSGHTNSVSCVKWGGQGLLYSGSHDRTVRVWDINSQGRCINILKSHAHWVNHLSLSTDYALRIGAFDHTGKKPSTPEEAQKKALENYEKICKKNGNSEEMMVTASDDYTMFLWNPLKSTKPIARMTGHQKLVNHVAFSPDGRYIVSASFDNSIKLWDGRDGKFISTFRGHVASVYQVAWSSDCRLLVSCSKDTTLKVWDVRTRKLSVDLPGHKDEVYTVDWSVDGKRVCSGGKDKMVRLWTH | binds

More lines, now with the values ahead:

binding | Molecule
binds | Rpf2 (protein, UniProt P36160 1-344) MIRTVKPKNARAKRALVKREAKLVENVKQALFIPGQSCNKNLHDIMVDLSALKKPDMKRFNRKNDIHPFEDMSPLEFFSEKNDCSLMVLMTSSKKRKNNMTFIRTFGYKIYDMIELMVADNFKLLSDFKKLTFTVGLKPMFTFQGAAFDTHPVYKQIKSLFLDFFRGESTDLQDVAGLQHVISMTIQGDFQDGEPLPNVLFRVYKLKSYKSDQGGKRLPRIELVEIGPRLDFKIGRIHTPSPDMVTEAHKKPKQLEMKTKKNVELDIMGDKLGRIHMGKQDLGKLQTRKMKGLKSKFDQGTEEGDGEVDEDYEDEASYSDDGQEYEEEFVSATDIEPSAKRQKK
binds | Ipi1 (protein, UniProt P38803 1-334) MTKSRKQKQKKQDFLRKKLKVGKPKEKARNATDTSFVSKTISIRNQHLDQNPHDLTKRLTLLKHHNINVRKETLTTFQKSIPSIIKSRLMTPLLTQSIPLICDESQQVRQGLIDLVDEIGSHDAEILKLHCNIFVLYINMAMTHIVTQIQADSTKFLSHLLKYCGDEVVRKSWVKLLNGVFGVLGWGQVGKNDSASIVQTKKRNAKYVTIHLNALYTLVEYGCQDERARSDGDTAETTEDSGTLRNPYLIPDYPQPFEHLKLFTRELKVQDATSSGVNATLLSLATQDIDTRKAVFIEQFLPIVRKKIEVIIKEGGECGKSANKLKTLLAKIFD

Target: T1, Nog1-TAP (S. cerevisiae)
Experiment: as above
Remark: another data set of the same source

Molecule | binding
rpL2 (S. cerevisiae) | binds
rpL25 (from UniProt P04456 1-142) | binds
rpL31 (from UniProt P0C2H8) | binds
rpL19 (from UniProt P0CX82 1-189) | binds
rpL9 (from UniProt P05738) | binds
rpL39 (from UniProt P04650 1-51) | binds
rpL11 (from UniProt P0C0W9) | binds

The remaining lines, values ahead:

binding | Molecule
binds | Nog2 (from UniProt P53742 1-486)
binds | rpL28 (from UniProt P02406 1-149)
binds | rpL43 (S. cerevisiae)
